One data set relates to HLA-A*02. Description: Identification and relative LC-MS quantitation of HLA-A*02-presented tumor-associated peptides on tissue samples (presentation profiles, Tables 13A, 13B, 15, FIG. 1). Also on record: species or system human; key to Presentation score NHL / Presentation score CLL / Presentation score BRCA / Presentation score AML / Presentation score GB / Presentation score NSCLC / Presentation score GBC_CCC / Presentation score UEC / Presentation score MEL / Presentation score OSCAR / Presentation score GC / Presentation score UBC / Presentation score OC / Presentation score RCC / Presentation score CRC / Presentation score PCA / Presentation score HCC / Presentation score PC / Presentation score SCLC: specifically presented on tumors (++++); very highly over-presented on tumors compared to a panel of normal tissues (+++); highly over-presented on tumors compared to a panel of normal tissues (++); over-presented on tumors compared to a panel of normal tissues (+). The following applies: for Presentation score NHL: non-Hodgkin lymphoma (N = 18) vs panel of normal tissues (N = 262); for Presentation score OC: ovarian cancer (N = 20) vs panel of normal tissues (N = 262); for Peptide Presentation on cancer entities: HLA-A*02-binding tumor-associated peptides.

In data set [1] the test system is source genes (mRNA). Description: Gene and exon expression of source genes, TCGA tumor samples compared with normal tissue samples (Lonsdale, 2013) (Table 17). Also on record: species or system human. The following applies: for Target coverage: over-expression category of source gene, KIRC: Clear cell kidney carcinoma (N = 534).
The subject of data set [2] is source genes (mRNA). The data set can be described thus: Expression profiling of source genes by in-house RNASeq of tumor and normal tissues (Table 18, FIG. 2). Also on record: species or system human; key: very highly over-expressed in tumors compared to a panel of normal tissues (+++); highly over-expressed in tumors compared to a panel of normal tissues (++); over-expressed in tumors compared to a panel of normal tissues (+). The note with it: source gene of peptide; for Expression score OC: ovarian cancer (N = 12) vs panel of normal tissues.

The mark [3] stands for this setting: Table 13A, cancer entities on which the peptide was found presented.
Where [4] appears, read: cutoff more than 2-fold above highest 75% percentile of normal tissue samples.

This note sets out measurements from patent US20170189504A1, “NOVEL PEPTIDES AND COMBINATION OF PEPTIDES FOR USE IN IMMUNOTHERAPY AGAINST VARIOUS CANCERS” (immatics biotechnologies GmbH, priority 2015, published 2017).

For some of these results: Expression grades refer to the transcript from which the peptide derives; gene names, where given, were looked up from the sequence.

For “34: peptide found in HUWE1 (gene looked up) (FLLATEVVTV; listed as Homo sapiens) [compound 34]”, in the data set on HLA-A*02 (HLA-A*02 peptides, acute myeloid leukemia (N = 18) vs panel of normal tissues (N = 262)), the “Presentation score AML” value was “++++”. Besides, in the data set with HLA-A*02 (HLA-A*02 peptides), the “Presentation score NHL” value is “++++” and the “Presentation score OC” value was “++++”. The “Presentation score SCLC” value in the data set with HLA-A*02 (HLA-A*02 peptides, small cell lung cancer (N = 19) vs panel of normal tissues (N = 262)) was “++++”. In addition, the “Peptide Presentation on cancer entities” value with HLA-A*02 (setting [3]) is recorded as “OC, SCLC, AML, NHL”. In the data set on source genes (mRNA) [1] (Acute Myeloid Leukemia (N = 173), cutoff more than 2-fold above highest 75% percentile of normal tissue samples), the “Target coverage: over-expression category of source gene, LAML” value is “A (>=50% of tumors above the cutoff)”. For the same substance, the “Target coverage: over-expression category of source gene, BRCA” value in the data set on source genes (mRNA) [1] (Breast cancer (N = 1104), cutoff more than 2-fold above highest 75% percentile of high and medium risk normal tissue samples) was “B (>= 20% of tumors above the cutoff, but <50%)”. Also, the “Target coverage: over-expression category of source gene, KIRC” value in the data set with source genes (mRNA) [1] (setting [4]) is given as “B (>= 20% of tumors above the cutoff, but <50%)”. Besides, the “Target coverage: over-expression category of source gene, READ” value in the data set on source genes (mRNA) [1] (Colon and rectal adenocarcinoma (N = 167), cutoff more than 2-fold above highest 75% percentile of normal tissue samples) is “C (>=5% of tumors above the cutoff, but <20%)”. Besides, in the data set with source genes (mRNA) [1] (Colon and rectal adenocarcinoma (N = 462), cutoff more than 2-fold above highest 75% percentile of normal tissue samples), the “Target coverage: over-expression category of source gene, COAD” value is given as “C (>=5% of tumors above the cutoff, but <20%)”. In addition, the “Target coverage: over-expression category of source gene, ESCA” value with source genes (mRNA) [1] (Esophageal cancer (N = 185), cutoff more than 2-fold above highest 75% percentile of normal tissue samples) is on record as “A (>=50% of tumors above the cutoff)”. The “Target coverage: over-expression category of source gene, KICH” value in the data set with source genes (mRNA) [1] (Kidney chromophobe (N = 66), cutoff more than 2-fold above highest 75% percentile of normal tissue samples) is “C (>=5% of tumors above the cutoff, but <20%)”. The “Target coverage: over-expression category of source gene, LGG” value in the data set with source genes (mRNA) [1] (Lower grade glioma (N = 534), cutoff more than 2-fold above highest 75% percentile of normal tissue samples) was “B (>= 20% of tumors above the cutoff, but <50%)”. Also, the “Target coverage: over-expression category of source gene, LUAD” value with source genes (mRNA) [1] (Lung adenocarcinoma (N = 517), cutoff more than 2-fold above highest 75% percentile of normal tissue samples) is recorded as “C (>=5% of tumors above the cutoff, but <20%)”. Further, the “Target coverage: over-expression category of source gene, LUSC” value in the data set on source genes (mRNA) [1] (Lung squamous cell carcinoma (N = 503), cutoff more than 2-fold above highest 75% percentile of normal tissue samples) is listed as “C (>=5% of tumors above the cutoff, but <20%)”. The “Target coverage: over-expression category of source gene, OV” value with source genes (mRNA) [1] (Ovarian serous cystadenocarcinoma (N = 309), cutoff more than 2-fold above highest 75% percentile of normal tissue samples) is given as “B (>= 20% of tumors above the cutoff, but <50%)”. For the same substance, in the data set on source genes (mRNA) [1] (Pancreatic ductal adenocarcinoma (N = 179), cutoff more than 2-fold above highest 75% percentile of normal tissue samples), the “Target coverage: over-expression category of source gene, PAAD” value was “C (>=5% of tumors above the cutoff, but <20%)”. Moreover, the “Target coverage: over-expression category of source gene, KIRP” value with source genes (mRNA) [1] (Papillary kidney carcinoma (N = 291), cutoff more than 2-fold above highest 75% percentile of normal tissue samples) was “C (>=5% of tumors above the cutoff, but <20%)”. For the same substance, in the data set on source genes (mRNA) [1] (Prostate adenocarcinoma (N = 498), cutoff more than 2-fold above highest 75% percentile of normal tissue samples), the “Target coverage: over-expression category of source gene, PRAD” value is on record as “C (>=5% of tumors above the cutoff, but <20%)”. Moreover, the “Target coverage: over-expression category of source gene, SKCM” value with source genes (mRNA) [1] (Skin cutaneous melanoma (N = 473), cutoff more than 2-fold above highest 75% percentile of normal tissue samples) was “B (>= 20% of tumors above the cutoff, but <50%)”. In addition, in the data set on source genes (mRNA) [1] (Stomach adenocarcinoma (N = 415), cutoff more than 2-fold above highest 75% percentile of normal tissue samples), the “Target coverage: over-expression category of source gene, STAD” value is “A (>=50% of tumors above the cutoff)”. Also, in the data set with source genes (mRNA) [1] (Uterine corpus endometrial carcinoma (N = 546), cutoff more than 2-fold above highest 75% percentile of normal tissue samples), the “Target coverage: over-expression category of source gene, UCEC” value was “C (>=5% of tumors above the cutoff, but <20%)”. The “Expression score BRCA” value with source genes (mRNA) [2] (BRCA tumors vs panel of normal tissues) is on record as “+”. Also, the “Expression score OSCAR” value in the data set on source genes (mRNA) [2] (esophageal cancer incl. gastric-esophageal junction (N = 11) vs panel of normal tissues) is recorded as “+”. For the same substance, the “Expression score GB” value in the data set with source genes (mRNA) [2] (glioblastoma (N = 24) vs panel of normal tissues) is “+”. In addition, in the data set with source genes (mRNA) [2] (non-small cell lung cancer (N = 11) vs panel of normal tissues), the “Expression score NSCLC” value was “+”. Further, the “Expression score OC” value with source genes (mRNA) [2] is “+”. Moreover, in the data set with source genes (mRNA) [2] (small cell lung cancer (N = 10) vs panel of normal tissues), the “Expression score SCLC” value is “+”.
For “40: peptide found in GZMK (gene looked up) (VLIDPQWVLTA; listed as Homo sapiens) [compound 40]”, the “Presentation score NHL” value in the data set on HLA-A*02 (HLA-A*02 peptides) is listed as “++++”. In addition, the “Presentation score OC” value in the data set on HLA-A*02 (HLA-A*02 peptides) was “++++”. The “Peptide Presentation on cancer entities” value with HLA-A*02 (setting [3]) was “OC, NHL”; with HLA-A*02 (Table 13B, presentation on additional cancer entities), “CRC”. Moreover, the “Target coverage: over-expression category of source gene, KIRC” value in the data set with source genes (mRNA) [1] (setting [4]) is “C (>=5% of tumors above the cutoff, but <20%)”. For the same substance, in the data set on source genes (mRNA) [1] (Lymphoid neoplasm diffuse large B-cell lymphoma (N = 48), cutoff more than 2-fold above highest 75% percentile of normal tissue samples), the “Target coverage: over-expression category of source gene, DLBC” value is listed as “A (>=50% of tumors above the cutoff)”. In addition, the “Expression score NHL” value in the data set with source genes (mRNA) [2] (non-Hodgkin lymphoma (N = 10) vs panel of normal tissues) is listed as “+”. The “Expression score OC” value with source genes (mRNA) [2] is “+”. In the data set with source genes (mRNA) [2] (renal cell carcinoma (N = 10) vs panel of normal tissues), the “Expression score RCC” value is “+”.
